Results taken from article doi:10.1101/2025.10.26.684696.
No constants are given. Whether binding was seen depends on the method and setting. Some binding calls cover weakened binding; strength is not graded here.

The chains behind the UniProt entries cited, without tags or fusion partners. Residues count along the entry.
UniProt Q9Y6N7, residues 26-897: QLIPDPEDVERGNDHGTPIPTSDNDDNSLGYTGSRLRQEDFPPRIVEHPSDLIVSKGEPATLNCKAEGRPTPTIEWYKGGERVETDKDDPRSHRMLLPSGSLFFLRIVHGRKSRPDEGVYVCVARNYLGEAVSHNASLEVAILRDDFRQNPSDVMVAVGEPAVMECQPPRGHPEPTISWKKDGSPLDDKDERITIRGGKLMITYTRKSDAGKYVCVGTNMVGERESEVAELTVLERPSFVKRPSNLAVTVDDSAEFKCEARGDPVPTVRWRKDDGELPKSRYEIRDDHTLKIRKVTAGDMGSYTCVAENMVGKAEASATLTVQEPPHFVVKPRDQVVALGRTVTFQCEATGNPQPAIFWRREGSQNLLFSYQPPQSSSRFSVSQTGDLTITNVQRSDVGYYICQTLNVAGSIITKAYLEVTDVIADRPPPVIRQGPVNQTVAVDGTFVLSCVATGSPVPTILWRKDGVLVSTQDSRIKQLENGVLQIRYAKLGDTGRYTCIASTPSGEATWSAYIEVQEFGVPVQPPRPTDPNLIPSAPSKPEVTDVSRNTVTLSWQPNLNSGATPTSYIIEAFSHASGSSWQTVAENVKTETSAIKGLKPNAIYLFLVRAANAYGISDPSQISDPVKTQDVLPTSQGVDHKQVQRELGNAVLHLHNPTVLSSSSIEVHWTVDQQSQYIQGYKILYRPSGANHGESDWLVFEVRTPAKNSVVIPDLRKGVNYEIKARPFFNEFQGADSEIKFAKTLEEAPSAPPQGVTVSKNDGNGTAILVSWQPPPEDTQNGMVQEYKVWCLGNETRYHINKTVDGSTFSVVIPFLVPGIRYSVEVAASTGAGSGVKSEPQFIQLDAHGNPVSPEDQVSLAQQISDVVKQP

Biological target: Human ROBO1–Fc (human) (UniProt Q9Y6N7)
Assay: BLI

- binding: binds
B1: SLIT2 (recombinant) (ligand, UniProt O94813)
chain: QCSCSGSTVDCHGLALRSVPRNIPRNTERLDLNGNNITRITKTDFAGLRHLRVLQLMENKISTIERGAFQDLKELERLRLNRNHLQLFPELLFLGTAKLYRLDLSENQIQAIPRKAFRGAVDIKNLQLDYNQISCIEDGAFRALRDLEVLTLNNNNITRLSVASFNHMPKLRTFRLHSNNLYCDCHLAWLSDWLRQRPRVGLYTQCMGPSHLRGHNVAEVQKREFVCSGHQSFMAPSCSVLHCPAACTCSNNIVDCRGKGLTEIPTNLPETITEIRLEQNTIKVIPPGAFSPYKKLRRIDLSNNQISELAPDAFQGLRSLNSLVLYGNKITELPKSLFEGLFSLQLLLLNANKINCLRVDAFQDLHNLNLLSLYDNKLQTIAKGTFSPLRAIQTMHLAQNPFICDCHLKWLADYLHTNPIETSGARCTSPRRLANKRIGQIKSKKFRCSAKEQYFIPGTEDYRSKLSGDCFADLACPEKCRCEGTTVDCSNQKLNKIPEHIPQYTAELRLNNNEFTVLEATGIFKKLPQLRKINFSNNKITDIEEGAFEGASGVNEILLTSNRLENVQHKMFKGLESLKTLMLRSNRITCVGNDSFIGLSSVRLLSLYDNQITTVAPGAFDTLHSLSTLNLLANPFNCNCYLAWLGEWLRKKRIVTGNPRCQKPYFLKEIPIQDVAIQDFTCDDGNDDNSCSPLSRCPTECTCLDTVVRCSNKGLKVLPKGIPRDVTELYLDGNQFTLVPKELSNYKHLTLIDLSNNRISTLSNQSFSNMTQLLTLILSYNRLRCIPPRTFDGLKSLRLLSLHGNDISVVPEGAFNDLSALSHLAIGANPLYCDCNMQWLSDWVKSEYKEPGIARCAGPGEMADKLLLTTPSKKFTCQGPVDVNILAKCNPCLSNPCKNDGTCNSDPVDFYRCTCPYGFKGQDCDVPIHACISNPCKHGGTCHLKEGEEDGFWCICADGFEGENCEVNVDDCEDNDCENNSTCVDGINNYTCLCPPEYTGELCEEKLDFCAQDLNPCQHDSKCILTPKGFKCDCTPGYVGEHCDIDFDDCQDNKCKNGAHCTDAVNGYTCICPEGYSGLFCEFSPPMVLPRTSPCDNFDCQNGAQCIVRINEPICQCLPGYQGEKCEKLVSVNFINKESYLQIPSAKVRPQTNITLQIATDEDSGILLYKGDKDHIAVELYRGRVRASYDTGSHPASAIYSVETINDGNFHIVELLALDQSLSLSVDGGNPKIITNLSKQSTLNFDSPLYVGGMPGKSNVASLRQAPGQNGTSFHGCIRNLYINSELQDFQKVPMQTGILPGCEPCHKKVCAHGTCQPSSQAGFTCECQEGWMGPLCDQRTNDPCLGNKCVHGTCLPINAFSYSCKCLEGHGGVLCDEEEDLFNPCQAIKCKHGKCRLSGLGQPYCECSSGYTGDSCDREISCRGERIRDYYQKQQGYAACQTTKKVSRLECRGGCAGGQCCGPLRSKRRKYSFECTDGSSFVDEVEKVVKCGCTRCVS
